These are yes or no findings as the source states them, for the method shown. Binding calls can cover weak binding; strength is not graded here.

Chains of the proteins cited; added tags and fusions are not shown. Lines headed by an entry give the natural chain unless they say otherwise; changes in a name come on top.
UniProt P53286: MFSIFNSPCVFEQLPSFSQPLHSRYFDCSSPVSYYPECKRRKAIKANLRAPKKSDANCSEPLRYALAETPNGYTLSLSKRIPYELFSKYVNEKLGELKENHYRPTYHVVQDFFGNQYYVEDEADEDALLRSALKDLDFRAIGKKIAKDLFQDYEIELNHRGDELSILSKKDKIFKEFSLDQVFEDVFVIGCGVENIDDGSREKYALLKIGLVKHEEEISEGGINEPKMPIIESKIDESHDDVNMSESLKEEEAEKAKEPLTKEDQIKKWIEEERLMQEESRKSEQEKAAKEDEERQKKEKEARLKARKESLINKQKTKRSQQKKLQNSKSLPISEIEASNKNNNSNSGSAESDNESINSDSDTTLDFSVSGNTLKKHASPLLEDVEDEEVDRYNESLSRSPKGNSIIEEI
UniProt P25491: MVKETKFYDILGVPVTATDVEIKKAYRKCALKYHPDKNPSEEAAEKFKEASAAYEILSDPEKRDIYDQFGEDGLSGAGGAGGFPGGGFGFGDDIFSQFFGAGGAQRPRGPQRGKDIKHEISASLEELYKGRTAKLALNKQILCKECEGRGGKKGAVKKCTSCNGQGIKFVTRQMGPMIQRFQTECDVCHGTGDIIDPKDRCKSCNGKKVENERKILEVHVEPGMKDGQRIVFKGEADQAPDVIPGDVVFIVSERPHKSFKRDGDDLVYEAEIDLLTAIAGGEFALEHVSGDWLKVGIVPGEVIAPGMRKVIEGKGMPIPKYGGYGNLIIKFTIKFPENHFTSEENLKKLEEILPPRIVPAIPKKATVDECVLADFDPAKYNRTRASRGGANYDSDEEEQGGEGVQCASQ

The values that follow come from PMC6813348.

The target of the test is Btn2 (S. cerevisiae) (UniProt P53286). Put plainly: pull-down; 1 μM of each protein in buffer A, 25 °C, 15 min; Btn2 isolated on Btn2-binder beads (Btn2 antibodies on NHS-sepharose), seven washes; SDS-PAGE with SYPRO-Ruby; both purified.

On to Ydj1 (from UniProt P25491 1-409), for which the binding entry is “no binding (tested: 1 μM)”.

B1: Sis1 (protein, UniProt P25294 1-352)
chain: MVKETKLYDLLGVSPSANEQELKKGYRKAALKYHPDKPTGDTEKFKEISEAFEILNDPQKREIYDQYGLEAARSGGPSFGPGGPGGAGGAGGFPGGAGGFSGGHAFSNEDAFNIFSQFFGGSSPFGGADDSGFSFSSYPSGGGAGMGGMPGGMGGMHGGMGGMPGGFRSASSSPTYPEEETVQVNLPVSLEDLFVGKKKSFKIGRKGPHGASEKTQIDIQLKPGWKAGTKITYKNQGDYNPQTGRRKTLQFVIQEKSHPNFKRDGDDLIYTLPLSFKESLLGFSKTIQTIDGRTLPLSRVQPVQPSQTSTYPGQGMPTPKNPSQRGNLIVKYKVDYPISLNDAQKRAIDENF
Take B1: the binding entry is “binds”.
